Data as given in PubChem BioAssay AID1224826 (NIAID, 2016)

Purpose: 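Knock-downs that raise or lower Tnf reporter signal after endotoxin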 (primary screen)
Cells: RAW264.7 G9 macrophages from mouse bearing reporters for p65 (GFP) and the Tnf promoter (mCherry)
Reagents: siRNA pool against mouse genes, 100 nM
Time to read-out: 16 h of LPS stimulation, after 2 days of siRNA transfection
Challenge: bacterial lipopolysaccharide (Salmonella minnesota R595), 10 ng/ml
Measurement: 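Nuclear mCherry signal of the Tnf promoter reporter measured by imaging after background removal, scaled to each plate median and turned into robust z-scores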
Reading the numbers: Tnf reporter robust z-score: higher = stronger Tnf promoter reporter signal after LPS; Tnf reporter intensity: higher = stronger Tnf promoter reporter signal
Hit rule: 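Called active when robust z-score is at most -1.3, matching the median of the Tlr4 knock-down control, or over 3; control wells and wells with under 50 cells never active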
Meaning of the calls: active = Tnf reporter clearly lowered or raised; inactive = no clear change in Tnf reporter
In all, the deposit lists about 17,000 reagents; shown is a random part of them. About 1,110 of all reagents (6.6%) were called active. 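Active means lowered or raised reporter signal; replicate intensities are raw and not normalised per plate.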 Further read-outs or replicates are left out here.

target	Tnf reporter robust z-score	fewer than 50 cells in well	Tnf reporter intensity, replicate 1	Call
Fmr1 (GeneID 14265)	-0.65	enough cells in well	230	inactive
Wdtc1 (GeneID 230796)	-0.98	enough cells in well	176	inactive
Podn (GeneID 242608)	0.07	enough cells in well	138	inactive
Tmod4 (GeneID 50874)	-1.39	enough cells in well	64.7	active
Ca5a (GeneID 12352)	0.21	enough cells in well	181	inactive
Alppl2 (GeneID 11650)	1.42	enough cells in well	257	inactive
Phb2 (GeneID 12034)		fewer than 50 cells per well; well left out of calls	71.1	inactive
Timm17a (GeneID 21854)	0.98	enough cells in well	128	inactive
Or7h8 (GeneID 258905)		fewer than 50 cells per well; well left out of calls	61.5	inactive
Scmh1 (GeneID 29871)	0.06	enough cells in well	298	inactive
D330050P16RIK	-0.72	enough cells in well	177	inactive
Trim61 (GeneID 260296)	3.34	enough cells in well	251	active
Zzz3 (GeneID 108946)	-0.2	enough cells in well	95.1	inactive
Il36g (GeneID 215257)	-0.23	enough cells in well	181	inactive
Cmtm8 (GeneID 70031)	2.16	enough cells in well	259	inactive
Cadm4 (GeneID 260299)	-1.25	enough cells in well	125	inactive
Sh3pxd2b (GeneID 268396)	-0.53	enough cells in well	248	inactive
Spmip8 (GeneID 73407)	1.51	enough cells in well	392	inactive
Cdc34 (GeneID 216150)	-0.52	enough cells in well	228	inactive
Glra2 (GeneID 237213)	1.34	enough cells in well	357	inactive
Sh3bgrl (GeneID 56726)		fewer than 50 cells per well; well left out of calls	182	inactive
Rbm10 (GeneID 236732)	-0.74	enough cells in well	79.3	inactive
Hoxa7 (GeneID 15404)	0.12	enough cells in well	242	inactive
Trpv6 (GeneID 64177)	-0.04	enough cells in well	226	inactive

Active calls (from the list above):
target	Tnf reporter robust z-score	fewer than 50 cells in well	Tnf reporter intensity, replicate 1	Call
Tmod4 (GeneID 50874)	-1.39	enough cells in well	64.7	active
Trim61 (GeneID 260296)	3.34	enough cells in well	251	active
